Article PMC3170314
Results are given in words; binding and its absence hold for the method and conditions named. Binding seen in cells or lysates may run through a third protein. For some assays here: A result given as binding can be weak or reduced; the word gives no strength. Tags and fused reporters may be left off the sequences shown. Each block holds one molecule with its values, some of them ahead of it.

How the values were obtained:
[1] = biological target: T1, 3Flag tagged RNF185 (human) (UniProt Q96GF1); assay: co-IP; 293T cells co-transfected with a 3Flag tagged and a 2HA tagged construct; 24 h later lysates (50 mM Tris-HCl pH 7.5, 150 mM NaCl, 1 mM EDTA, 1% Triton X-100, 10% glycerol) precipitated with anti-Flag conjugated beads and blotted with anti-Flag and anti-HA
T1 sequence: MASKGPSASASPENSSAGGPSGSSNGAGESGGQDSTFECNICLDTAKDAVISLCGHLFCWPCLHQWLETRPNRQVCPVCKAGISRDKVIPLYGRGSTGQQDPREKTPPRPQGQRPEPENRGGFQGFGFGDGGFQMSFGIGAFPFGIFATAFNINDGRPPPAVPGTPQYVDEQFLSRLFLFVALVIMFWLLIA

[2] = biological target: RING domain mutated RNF185 (human) (UniProt Q96GF1); assay: as above

- binding [1]: no binding
Molecule: dCC mutant of BNIP1 (from UniProt Q12981)

- binding [2]: binds
B1: 2HA tagged BNIP1 (protein, UniProt Q12981 1-228)
chain: MAAPQDVHVRICNQEIVKFDLEVKALIQDIRDCSGPLSALTELNTKVKEKFQQLRHRIQDLEQLAKEQDKESEKQLLLQEVENHKKQMLSNQASWRKANLTCKIAIDNLEKAELLQGGDLLRQRKTTKESLAQTSSTITESLMGISRMMAQQVQQSEEAMQSLVTSSRTILDANEEFKSMSGTIQLGRKLITKYNRRELTDKLLIFLALALFLATVLYIVKKRLFPFL
